From ChEMBL document CHEMBL3988442, “University of Dundee, Small-Polar-MMV Screening Library” (2021).

Mtb glucose medium: 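Phenotypic screen: M. tuberculosis growth, glucose 7H9 medium, 3 days; the read-out is not stated. Concentration: 50 µM. Higher reads as more growth inhibition (inferred: compounds with an IC50 in retests scored well above the rest). Size under these conditions: about 69,000 compounds, about 760 of them at 50% or above in at least one test.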
Mtb cholesterol medium: 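Whole-cell growth test on Mycobacterium tuberculosis, read after 4 days in a medium based on cholesterol and the lipid DPPC; the read-out is not stated. Concentration: 50 µM. Direction is inferred from retests: higher values go with more growth inhibition. Of about 69,000 compounds tested this way, about 370 (0.54%) reached 50% or more in at least one test.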

The filed quantity is “Percent Effect” (%). How 0% and 100% were set is not recorded. Most values in the screen are low, and negative values occur. Compounds were drawn at random from those tested, without regard to their results. Two or more numbers in one place are separate tests of the same structure; such repeats can differ widely.

| # | Compound | Mtb glucose medium | Mtb cholesterol medium |
|---|---|---|---|
| 1 | `CO[C@H]1CCN(c2nnc(C)s2)C[C@@H]1Cc1cccc(C)c1.O=C(O)C(F)(F)F` | 55.12 and 44.17 | 32.34 |
| 2 | `CSCc1noc(CN2CCC3(CC2)CC(=O)N(CC=C(C)C)C3)n1` | 4.56 and -0.5077 | -2.725 |
| 3 | `Cc1cccc(C)c1NC(=O)c1cccc(N(C)S(C)(=O)=O)c1C` | 10.39 | -14.02 and 3.638 |
| 4 | `Cc1cnn(CCC(=O)N2CCN(c3nc(C)cs3)CC2)c1` | 12.52 | -3.539 |
| 5 | `O=C(NC1(c2cccc(F)c2)CCOCC1)c1ccoc1` | -11.13 | -5.654 |
| 6 | `Cc1nc(CN2CCCCC2CCc2cccs2)co1` (centres undefined) | 5.573 and 3.387 | 1.866 |
| 7 | `COc1ccc(C2(C(=O)NCc3c(C)ncc4c3CCNC4)CC2)cc1` | -8.917 | -6.814 |
| 8 | `Cn1cnc(S(=O)(=O)NCCC(O)c2ccc3c(c2)OCO3)c1` (centres undefined) | 18.35 | -33.98 |
| 9 | `C[C@@H](CO)Nc1nccc(-c2cnc3sc(Cl)cn3c2=O)n1` | 3.642 | -19.36 |
| 10 | `CC(C)N(C(=O)Cn1c(-c2ccco2)cc2cccnc21)C(C)C.Cl` | -35.65 | -14.02 and -2.54 |
| 11 | `CN1CCCN(c2cnn(Cc3ccncc3)c(=O)c2)CC1` | -1.02 and -17.67 | -2.113 |
| 12 | `CCC1(CC)Cc2ccccc2-c2nc(NCCCO)[nH]c(=O)c21` | -0.4631 | -0.606 |
| 13 | `Cc1c(Cl)cccc1OCC(=O)NC1(C#N)CCSC1` (centres undefined) | -11.73 and 13.14 | 2.07 |
| 14 | `COCC1c2c(cnn2C)CCN1C(=O)c1cccn1C.O=C(O)C(F)(F)F` (centres undefined) | 5.005 | 10.33 |
| 15 | `O=C(Cc1c(F)cccc1F)N1CCN(CC(=O)N2CCCC2)CC1` | -30.58 | -18.15 |
| 16 | `Cc1nc(C(=O)N2CCC(Cc3cnc4[nH]ccc4c3)C2)co1` (centres undefined) | -5.54 | -18 |
| 17 | `O=C(CCn1c(C(F)F)cc2cccnc21)NC1CCCCC1` | 0.8884 | 4.415 |
| 18 | `Cn1ccc(C(=O)NC2CCC23CCN(Cc2ccc(F)cc2)CC3)c1.O=C(O)C(F)(F)F` (centres undefined) | 9.499 | 7.131 |
| 19 | `CN1CCOC(CNC(=O)C2(c3cccc(C(F)(F)F)c3)CCCC2)C1` (centres undefined) | 25.98 | 10.57 |
| 20 | `CN(C)CCNC(=O)CNC(=O)N1CCc2c([nH]c3ccc(Cl)cc23)C1` | 18.99 | -19.81 |
| 21 | `CC(C)Nc1nc2c(s1)C(=O)CN(C(=O)NCc1ccccc1)C2` | 32.01 | -10.66 |
| 22 | `Cc1nc(-c2cccc(Cl)c2)n(CC(=O)NCC2CCCO2)c(=O)c1C` (centres undefined) | 31.2 | 20.41 |
| 23 | `O=C(O)C(F)(F)F.O=C(O)C(F)(F)F.O=C(O)C(F)(F)F.[H][C@@]12OCCN(Cc3cccc(C)n3)[C@@]1([H])CC[C@@H]2OCc1ccncc1` | 14.39 | 10.82 |
| 24 | `CCC(=O)N1CCC2(CC1)CC(CC(N)=O)c1ccc(F)cc12` (centres undefined) | -4.52 and -16.4 | -14.09 |
| 25 | `CCCN(Cc1cnc2ccccc2n1)Cc1ccccc1OC` | 11.83 | -20.18 |
| 26 | `O=C(NCc1ccc(N2CCSCC2)cc1)NCc1cc[nH]n1` | 7.425 and 8.295 | 5.612 |
| 27 | `CCN1CC2(CCC1=O)CCN(Cc1cc(F)ccc1Cl)CC2` | 11.4 | -7.265 and 3.434 |
| 28 | `O=C(NCc1ccc2c(c1)OCO2)[C@H]1C=CCN1c1ncccn1` | 8.814 | 24 |
| 29 | `CN(C)C(=O)COCc1cncc2c1CCN(C1CCOCC1)C2.O=C(O)C(F)(F)F.O=C(O)C(F)(F)F` | -29.01 | -26.17 |
| 30 | `Cc1csc(C2CCCN(C(=O)c3ccc(=O)n(C)n3)C2)n1` (centres undefined) | 27.21 | 11.69 |
| 31 | `CNC(=O)CC1CC2(CCNCC2)c2cc(F)ccc21` (centres undefined) | -8.093 | -26.74 |
| 32 | `C[C@@H]1CN(S(=O)(=O)c2ccc(F)cc2Cl)C[C@]1(C)O` | 13.7 | 12.86 |
| 33 | `CC(=O)N1CCC2(C1)c1ccccc1S(=O)(=O)N2C` (centres undefined) | 5.655 | -7.793 |
| 34 | `O=C(COc1ccccc1)N(Cc1ccncc1)C1CC1` | -3.158 | -15.47 |
| 35 | `O=C(N[C@@H]1CNCCC[C@H]1O)c1ccc(OCc2ccccc2)cc1` | 21.48 and 15.28 | 19.24 |
| 36 | `O=c1cnc2ccccc2n1CCCn1cccn1` | -2.337 | -17.78 |
| 37 | `CCOc1cc(CNCCCn2ccnc2)cc(Cl)c1OCC` | -50.34 | -37.5 and -1.461 |
| 38 | `CCN(CC(=O)NC(C)C)S(=O)(=O)N1CCCC(C)C1` (centres undefined) | -11.7 | -22.06 |
| 39 | `c1cnn(Cc2ccc(CN3CCC4(CCCNC4)C3)cc2)c1` (centres undefined) | -24.82 | -6.317 and -28.93 |
| 40 | `O=C(O)C(F)(F)F.[H][C@@]12CN(C(=O)c3cccnc3)C[C@]1([H])CN(c1cc(OC)ncn1)C2` | 26.38 and 0.03602 | -0.06617 |
| 41 | `COc1ccc(CNC(=O)NCCc2csc(C)n2)cn1` | 2.926 | -28.52 |
| 42 | `CCNC(=O)C(C)NC(=O)c1cnc(-c2ccc(C)cc2C)s1` (centres undefined) | -14.83 | -16.17 |
| 43 | `COC(C)C(=O)Nc1cc(C(=O)N2CCSCC2)ccc1C` (centres undefined) | -25.01 | -17.54 |
| 44 | `[H][C@@]12CC[C@H](Oc3ccccc3)[C@]1([H])CN(C(=O)CN(C)C)C2` | -8.956 | -29.6 |
| 45 | `O=c1[nH]c(N2CC(O)C2)nc2c1cnn2-c1ccccc1` | 10.54 | -138.1 and -5.063 |
| 46 | `c1cncc(COCC2CNCc3nccn3C2)c1` (centres undefined) | -31.82 and -0.5445 | -12.57 |
| 47 | `CC(C)CCN(C)C(=O)c1cc(CN2CCC(O)CC2)on1` | -1.499 | 8.998 |
| 48 | `COc1ccccc1C(=O)N1CC(=O)N(C2CCCCC2)CC(O)C1` (centres undefined) | -29.21 | -20 |
| 49 | `O=C(Nc1cccc(F)c1)NC1CCN(Cc2ccncc2)CC1` | 0.5159 and -25.05 | -3.291 |
| 50 | `Cc1ccccc1C(=O)N1CC(C(=O)NCC2CC2)C2(CCOCC2)C1` (centres undefined) | 8.616 and 11.17 | -6.248 and -3.369 |
| 51 | `C[C@@H]1CN(C(=O)Cc2ccsc2)C[C@]12CCN(CCN(C)C)C2=O` | -2.131 | -0.1281 and -7.328 |
| 52 | `Cc1ccsc1CNC(=O)N1CCC(Cc2cnn(C)c2)C1` (centres undefined) | 23.69 | 11.88 |
| 53 | `CCCNC(=O)Cn1cc(OC)c(=O)cc1CSc1nc(C)cc(C)n1` | -11.32 | 14.46 |
| 54 | `O=C(C1CC1)N1CCCN(c2ncnc3c2CCNCC3)CC1` | 9.548 | 3.819 |
| 55 | `CCC(Nc1nccc(C2CCCC2)n1)c1ccccn1` (centres undefined) | 15 and 9.166 | 13.95 and 2.531 |
| 56 | `CC(C)N(CCNCc1ccc(C#N)cc1)C1CC1` | -4.698 and 0.3507 | -7.025 |
| 57 | `COCC(=O)NC(Cc1cc(N(C)C)nc(C2CC2)n1)c1ccccc1` (centres undefined) | -11.51 | -0.326 and -7.123 |
| 58 | `COCCNC(=O)c1c(-n2cnnn2)sc2c1CCCC2` | 11.05 | -5.457 |
| 59 | `CN(C)Cc1ccnc(NS(=O)(=O)Cc2cccc(F)c2)c1` | -1.521 and -2.544 | 5.738 |
| 60 | `Cc1nccnc1N1C[C@H](NC(=O)CNS(C)(=O)=O)[C@@H](C2CC2)C1` | 12.7 | 9.717 |
| 61 | `O=C(c1ccc2c(c1)COC2)N1CCCN(Cc2cscn2)CC1` | -38.1 | -26.8 |
| 62 | `Cc1c(NC(=O)NCCO)cccc1OC1CCCC1` | -19.31 | -21.05 |
| 63 | `COCCN1CCC(Cc2cncc(-c3ccc(C(=O)O)cc3)n2)CC1` | -22.43 | -5.1 |
| 64 | `FC1(F)CCNCC12CCN(c1ncccn1)C2` (centres undefined) | 7.106 and -8.447 | 51.6 |
| 65 | `COc1cccc(OCC(=O)NS(=O)(=O)c2cc(F)ccc2F)c1` | 18.28 and 7.339 | 6.923 |
| 66 | `[H][C@]12CC(COCC(=O)N(C)C)C[C@]1([H])N(Cc1ccco1)CCO2` (some centres undefined) | -22.17 and -6.392 | -13.19 |
| 67 | `CCc1cnc(C)nc1NC1CC(=O)N(CC2CCCCC2)C1` (centres undefined) | -6.197 | -3.121 |
| 68 | `CC(c1ccc(F)cc1)N1CCN(Cc2nccn2C)CC1` (centres undefined) | -2.915 | 2.797 |
| 69 | `COc1cc(C)ccc1OCC(=O)NS(=O)(=O)c1cccnc1` | 15.37 | 11.68 |
| 70 | `CCN(C(C)=O)c1nc(CN2CCCC2Cn2cncn2)cs1` (centres undefined) | -10.62 | -15.37 |
| 71 | `Oc1cccc2ccc(CN3CCC4(CCNCC4)C3)nc12` | -3.89 | -2.813 |
| 72 | `O=C(O)C(F)(F)F.O=C(O)C(F)(F)F.[H][C@@]12CCN(C(=O)C(C)C)CC[C@]1(C(=O)Nc1cccnc1)CCN2C` | 5.844 | -20.41 |
| 73 | `Nc1cc2c(nn1)CCN(C(=O)c1ccc(-c3ccco3)[nH]c1=O)C2` | 4.464 | 4.038 |
| 74 | `CCOc1c(F)cccc1C(=O)N(CC)C(C)c1cccnc1` (centres undefined) | 8.948 | 7.702 |
| 75 | `O=S(=O)(CC1CCOCC1)NCc1ccnc(O)c1` | -27.89 | -9.535 |
| 76 | `CC1c2ncc(CNC(=O)C3CC3)n2CCN1Cc1ccncc1.O=C(O)C(F)(F)F.O=C(O)C(F)(F)F` (centres undefined) | -15.79 | -8.818 |
| 77 | `Cc1ccc(N(C)CC(O)COCc2ccccc2)c(C)c1` (centres undefined) | 20.18 and 19.63 | 13.99 |

Some entries from above, unchanged:

Compound	Mtb glucose medium	Mtb cholesterol medium
O=C(Cc1c(F)cccc1F)N1CCN(CC(=O)N2CCCC2)CC1	-30.58	-18.15
COC(C)C(=O)Nc1cc(C(=O)N2CCSCC2)ccc1C (centres undefined)	-25.01	-17.54
CCCN(Cc1cnc2ccccc2n1)Cc1ccccc1OC	11.83	-20.18
O=S(=O)(CC1CCOCC1)NCc1ccnc(O)c1	-27.89	-9.535
Cc1nc(C(=O)N2CCC(Cc3cnc4[nH]ccc4c3)C2)co1 (centres undefined)	-5.54	-18
O=C(NCc1ccc2c(c1)OCO2)[C@H]1C=CCN1c1ncccn1	8.814	24